Reference: US12286440B2, “Penam derivative or salt thereof, pharmaceutical composition, and applications thereof” (priority 2018, dated 2025)
Some entries share one result that the patent states for a list of compounds. At least one compound was matched to its structure with a doubt left.

Test system: multidrug-resistant Pseudomonas aeruginosa strain (S-2838 strain)
Experiment: Test for protection against systemic infection in mouse with multidrug-resistant Pseudomonas aeruginosa
Format: in vivo, ICR male SPF mice
Settings: mice infected intraperitoneally with S-2838 (about 10^6 CFU/mouse); 40 mg/kg subcutaneously once 1 hour after infection; 3 days after the inoculation
Procedure: As mice, ICR male SPF mice (4 weeks old: 10 mice per group) were used. Clinically isolated multidrug-resistant Pseudomonas aeruginosa strain (S-2838 strain) cultured overnight on a Mueller-Hinton agar plate at 37° C. was cultured on a cation-adjusted Mueller Hinton medium for 5 hours, and then diluted 20-fold with a 10% mucin/phosphate buffer, thereby preparing an inoculum. An infection was induced by intraperitoneally inoculating the mice with the inoculum at 0.5 mL (about 10^6 CFU/mouse). Each test compound was dissolved in physiological saline, and 1 hour after the infection, the compound was subcutaneously administered once to the mice at 40 mg/kg. The control group was administered with the same amount of physiological saline used as a vehicle. The number of surviving mice was recorded 3 days after the infection.
A test for protection against systemic infection in a mouse with multidrug-resistant Pseudomonas aeruginosa was performed in the same manner as in Test Example 2.

Nc1nc(/C(=N/OC2(C(=O)O)CCC2)C(=O)N[C@@H]2C(=O)N3C[C@@](C(=O)O)(N4CCN(NC(=O)C(=O)c5ccc(O)c(O)c5Cl)C4=O)S[C@H]23)cs1 [Example 19, (3R,5R,6R)-6-((Z)-2-(2-aminothiazol-4-yl)-2-((1-carboxycyclobutoxy)imino)acetamido)-3-(3-(2-(2-chloro-3,4-dihydroxyphenyl)-2-oxoacetamido)-2-oxoimidazolidin-1-yl)-7-oxo-4-thia-1-azabicyclo[3.2.0]heptane-3-carboxylate]
survival rate: ≥ 90%
